Values from PubChem BioAssay AID1224830 (NIAID, 2016)
Aim: 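Regulators of TLR4 signalling towards TNF-alpha in macrophage-like cells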 (primary screen). System: human THP-1 monocytic leukaemia cells, TNF dual-luciferase reporter clone, PMA-differentiated to macrophage-like cells. Reagents: siRNA pool against human genes, 50 nM. Duration: LPS for 4 h, given about 3 days after siRNA transfection. Conditions: bacterial LPS (TLR4 ligand), 10 ng/ml. Measured: 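Ratio of firefly to renilla light, scaled to the plate median and expressed as a robust z-score per replicate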. Reading the numbers: TNF reporter robust z-score: higher = stronger TNF reporter response to LPS. Call rule: 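Each well counts as active if its z-score is over 2.8 or under -1.5; controls are left without a call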.
The whole screen tested about 18,000 reagents; below is a part drawn at random. Over the whole deposit, about 2,900 (16%) got an active call. 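Calls are made per well; low scores hint the gene aids the LPS response, high scores that it dampens it.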 Repeated entries: four replicate wells of each siRNA pool.

target gene	TNF reporter robust z-score	activity call
B3GALT1	-0.62	inactive
B3GALT1	0.25	inactive
B3GALT1	-0.15	inactive
B3GALT1	0.52	inactive
KRTAP20-1	-0.73	inactive
KRTAP20-1	-0.7	inactive
KRTAP20-1	-1.6	active
KRTAP20-1	-0.56	inactive
IFI6	1.05	inactive
IFI6	2.42	inactive
IFI6	0.92	inactive
IFI6	1.12	inactive
GNA12	-0.77	inactive
GNA12	-0.38	inactive
GNA12	-0.05	inactive
GNA12	-0.21	inactive
CDC37P1	0.01	inactive
CDC37P1	-0.15	inactive
CDC37P1	0.03	inactive
CDC37P1	-0.44	inactive
TSEN2	1.61	inactive
TSEN2	2.05	inactive
TSEN2	1.45	inactive
TSEN2	1.95	inactive
WNT5B	0.93	inactive
WNT5B	4.54	active
WNT5B	1.56	inactive
WNT5B	1.13	inactive
RBM43	-0.64	inactive
RBM43	0.22	inactive
RBM43	0.1	inactive
RBM43	0.16	inactive
FOXS1	-0.39	inactive
FOXS1	-0.13	inactive
FOXS1	-0.66	inactive
FOXS1	-0.92	inactive
CMSS1	0.78	inactive
CMSS1	1.28	inactive
CMSS1	0.97	inactive
CMSS1	1.1	inactive
FETUB	-1.67	active
FETUB	-0.86	inactive
FETUB	-1.38	inactive
FETUB	-0.81	inactive
RGL3	-0.59	inactive
RGL3	0.1	inactive
RGL3	-0.44	inactive
RGL3	-0.04	inactive
OR5D18	2.5	inactive
OR5D18	1.59	inactive
OR5D18	-0.2	inactive
OR5D18	0.38	inactive
PHLPP1	0.17	inactive
PHLPP1	-0.44	inactive
PHLPP1	-0.5	inactive
PHLPP1	-0.52	inactive
STK31	0.67	inactive
STK31	0.23	inactive
STK31	0.24	inactive
STK31	1.11	inactive
BMAL1	-1.3	inactive
BMAL1	-1.14	inactive
BMAL1	0	inactive
BMAL1	-0.41	inactive
TMEM174	-0.85	inactive
TMEM174	-0.88	inactive
TMEM174	-0.72	inactive
TMEM174	0.01	inactive
SEC22A	0.07	inactive
SEC22A	1.1	inactive
SEC22A	-0.3	inactive
SEC22A	0.42	inactive
FGFBP2	-1	inactive
FGFBP2	-0.88	inactive
FGFBP2	-1.21	inactive
FGFBP2	-0.52	inactive

Hits (from the list above):
target gene	TNF reporter robust z-score	activity call
KRTAP20-1	-1.6	active
WNT5B	4.54	active
FETUB	-1.67	active
